Test results as given in US20070134286A1, “Methods for reducing intimal hyperplasia, smooth muscle cell proliferation and restenosis in mammals” (priority 2004, published 2007).

Tested on: primary culture of human coronary artery smooth muscle cells
Experiment: Affymetrix U133Av2 microarray gene expression
Type: cell-based
Settings: 100 nM, 30 hr; two-fold change cutoff, p<0.05; of 176 target genes
Experimental: Microarray: […] While the yield of total RNA was low ([…] total per sample), the RNAs were intact as judged by Agilent 2100 analysis. One μg of total RNA from each sample was used to prepare biotin-labeled cRNA target using standard Affymetrix protocols. Prepared cRNA targets were of good quality and quantity. The Affymetrix Human chip U133Av2 was used (22,000+ probe sets) and 10 μg cRNA target was applied to each array. […] Scanned images were loaded into the Rosetta Resolver 4.0 database and processed using the Resolver Affymetrix error model. Within Resolver the drug treated sample replicates (n=3) were informatically combined and ratios constructed relative to the combined control (no addition of drug) samples. The Resolver Affymetrix error model was used to develop each ratio and calculate a p-value. The Resolver error model is robust and includes reporter level, background and error values in the calculation of statistical significance. A combination of hierarchical clustering, gene ontology analysis and pathway mapping were used to assess the function of the regulated genes.

SMILES	number of genes down-regulated	number of genes up-regulated
C=C1/C(=C\C=C2/CCC[C@]3(C)[C@@H]([C@H](C)CCCC(C)(C)O)CC[C@@H]23)C[C@@H](O)C[C@@H]1O [calcitriol, 1-alpha-25-dihydroxyvitamin D3]	60	116
C[C@H](/C=C/[C@H](C)C(C)(C)O)[C@H]1CC[C@H]2/C(=C/C=C3C[C@@H](O)C[C@H](O)C3)CCC[C@]12C [paricalcitol, 19-nor-1α,3β,25-trihydroxy-9,10-secoergosta-5(Z); 7(E),22(E)-triene]	61	115
